Legend:
B16-GM tumors = test: B16-GM melanoma model; conditions: FEXO-treated vs vehicle-treated WT mice; 30 mg/kg oral gavage once per day
CT26 tumors = test: CT26 tumor model with or without OVA-induced allergic airway disease; format: in vivo, mouse; conditions: allergic mice
Description: (§1) Tumor inductions and treatment experiments.
(§2) Isolation of tumor-infiltrating cells.
(§3) Flow cytometry staining and analysis.

EO771 tumors = test system: EO771 tumors
Description: as §1, §2, §3

[1] = test system: bone marrow-derived macrophages (BMDMs); conditions: FEXO treatment of HRH1-/- macrophages vs vehicle-treated HRH1-/- macrophages
EMT6 tumors = test: EMT6 tumor model with or without OVA-induced allergic airway disease; format: in vivo, mouse; conditions: allergic mice
Description: as §1, §2, §3

CC(C)(C(=O)O)c1ccc(C(O)CCCN2CCC(C(O)(c3ccccc3)c3ccccc3)CC2)cc1 (stereo not shown) [FEXO, fexofenadine]
MHCII:CD206 ratio in the TAMs (B16-GM tumors): Enhanced
allergy-induced increased VISTA on TAMs, decreased MHCII:CD206 ratio, reduced IFN-g+ CD8+ T cells (CT26 tumors): partially reversed
angiogenesis (CD31+ blood vessel density) (EO771 tumors; FEXO-treated vs vehicle-treated EO771 tumors): did not show a significant impact on angiogenesis
MHCII:CD206 ratio in the TAMs (EO771 tumors; FEXO-treated vs vehicle-treated WT mice, 30 mg/kg oral gavage once per day): Enhanced
mice remaining tumor free (EO771 tumors; PD-L1-/- mice treated with FEXO): 50%
MHCII:CD206 ratio [1]: did not increase the MHCII:CD206 ratio
allergy-induced increased VISTA on TAMs, decreased MHCII:CD206 ratio, reduced IFN-g+ CD8+ T cells (EMT6 tumors): partially reversed

— US20250242017A1, “HISTAMINE AND HRH1 SIGNALING ACTIVITY AS BIOMARKERS AND ASSOCIATED METHODS” (Board of Regents, The University of Texas System, priority 2022, published 2025)
